Some of these results come from one statement about several compounds together. At least one structure is not confirmed: it was looked up by name or label, or the drawing left a doubt. Some compounds share one range, which may span the group rather than tell each member. Positions of bridges follow the written chain, without caps; N, C: chain ends. Residues, ends and D or L forms follow the SMILES beside them. No end group written: not given here.
Biological target: BLyS (Homo sapiens, UniProt Q9Y275)
Experiment: Fluorescence anisotropy determination of BLyS-ligand dissociation constants
Format: binding
Details: fluorescein-labeled peptide, BLyS free in solution; read-out: KD (dissociation constant for BLyS in solution)
Protocol: Dissociation constants between the synthetic peptides and BLyS (free in solution) were measured by fluorescence anisotropy (FA). In these experiments, the concentration of the fluorescein-labeled peptide is held constant and the BLyS protein concentration was varied. […] Binding reactions containing 50 nM fluorescein-labeled peptide and a varied concentration of BLyS in a volume between 10 and 20 μL per well were performed in 384 well microplates. Reactions were assayed using a Tecan Polarion fluorescence polarization plate reader. Cross-competition studies between peptides were performed using 50 nM fluorescein-labeled peptide and 1-2 μM BLyS in the presence and absence of 100 μM unlabeled peptide. […] Other buffers in which dissociation constants of BLyS Binding polypeptides were […] include: […] […] The KD of several BLyS binding BAML peptides was determined by fluorescence anisotropy, performed as previously described.

Sequences of proteins named here, by UniProt entry; tags and fusion partners are left off. Residues count along the entry.
UniProt Q9Y275, 134-285 limits assumed: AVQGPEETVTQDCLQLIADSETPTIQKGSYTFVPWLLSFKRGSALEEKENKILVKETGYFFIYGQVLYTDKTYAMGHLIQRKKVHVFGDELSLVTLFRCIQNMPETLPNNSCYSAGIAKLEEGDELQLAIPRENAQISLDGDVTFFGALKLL

Kd, 500 to 2000 nM:
CC(=O)N[C@@H](C)C(=O)NCC(=O)N[C@@H](CCCCN)C(=O)N[C@@H](CCC(=O)O)C(=O)N1CCC[C@H]1C(=O)N[C@H]1CSSC[C@@H](C(=O)N[C@@H](C)C(=O)N[C@H](C(=O)N[C@@H](CO)C(=O)NCC(=O)N2CCC[C@H]2C(=O)NCC(=O)N2CCC[C@H]2C(=O)N[C@@H](CCC(=O)O)C(=O)NCC(=O)NCC(=O)NCC(=O)N[C@@H](CCCCN)C(=O)O)C(C)C)NC(=O)[C@H](CCC(=O)O)NC(=O)[C@H](Cc2c[nH]c3ccccc23)NC(=O)[C@H](Cc2ccc(O)cc2)NC(=O)[C@H](Cc2ccccc2)NC(=O)[C@H](Cc2ccc(O)cc2)NC1=O [DX212] (Ac-AGKEPCYFYWECAVSGPGPEGGGK-OH; disulfide 6-12; C-terminus assumed)
Ac-GYDVLTKLYFVPGGPGPEGGGK [DX219]
CSCC[C@@H]1NC(=O)[C@H](Cc2c[nH]cn2)NC(=O)[C@@H](NC(=O)[C@H](CC(C)C)NC(=O)[C@H](CCCNC(=N)N)NC(=O)[C@H](CO)NC(=O)[C@H](CO)NC(=O)CNC(C)=O)CSSC[C@@H](C(=O)N[C@H](C(=O)N[C@@H](Cc2c[nH]cn2)C(=O)N[C@@H](Cc2ccccc2)C(=O)N[C@@H](C)C(=O)N2CCC[C@H]2C(=O)N2CCC[C@H]2C(=O)NCC(=O)N2CCC[C@H]2C(=O)N[C@@H](CCC(=O)O)C(=O)NCC(=O)NCC(=O)NCC(=O)N[C@@H](CCCCN)C(=O)O)C(C)C)NC(=O)[C@H](C(C)C)NC(=O)[C@H](Cc2c[nH]cn2)NC(=O)[C@H]([C@@H](C)O)NC(=O)[C@H](CC(C)C)NC(=O)[C@H](CCC(=O)O)NC(=O)[C@H](CC(=O)O)NC1=O [DX216] (Ac-GSSRLCHMDELTHVCVHFAPPGPEGGGK-OH; disulfide 6-15; C-terminus assumed)
CSCC[C@H](NC(=O)[C@@H]1CSSC[C@H](NC(=O)[C@H](CC(N)=O)NC(=O)CNC(=O)CNC(=O)[C@H](CC(=O)O)NC(=O)CNC(C)=O)C(=O)N[C@@H](Cc2ccc(O)cc2)C(=O)N[C@@H]([C@@H](C)O)C(=O)N[C@@H](CC(=O)O)C(=O)N[C@@H](CO)C(=O)N[C@@H](CC(C)C)C(=O)N[C@@H]([C@@H](C)O)C(=O)N[C@@H](CCCCN)C(=O)N[C@@H](CC(C)C)C(=O)N[C@@H](Cc2c[nH]cn2)C(=O)N[C@@H](Cc2ccccc2)C(=O)N1)C(=O)NCC(=O)N[C@@H](CC(=O)O)C(=O)N[C@@H](CCC(=O)O)C(=O)N1CCC[C@H]1C(=O)NCC(=O)N1CCC[C@H]1C(=O)N[C@@H](CCC(=O)O)C(=O)NCC(=O)NCC(=O)NCC(=O)N[C@@H](CCCCN)C(=O)O [DX217] (Ac-GDGGNCYTDSLTKLHFCMGDEPGPEGGGK-OH; disulfide 6-17; C-terminus assumed)
CC(=O)N[C@@H](C)C(=O)NCC(=O)N[C@H](C(=O)N1CCC[C@H]1C(=O)N[C@@H](Cc1ccccc1)C(=O)N[C@H]1CSSC[C@@H](C(=O)N[C@@H](Cc2ccccc2)C(=O)N[C@@H](CCC(=O)O)C(=O)N[C@@H](C)C(=O)NCC(=O)N2CCC[C@H]2C(=O)NCC(=O)N2CCC[C@H]2C(=O)N[C@@H](CCC(=O)O)C(=O)NCC(=O)NCC(=O)NCC(=O)N[C@@H](CCCCN)C(=O)O)NC(=O)[C@H](Cc2c[nH]cn2)NC(=O)[C@H](CCCCN)NC(=O)[C@H]([C@@H](C)O)NC(=O)[C@H](CC(C)C)NC(=O)[C@H](CC(C)C)NC(=O)[C@H](CC(=O)O)NC1=O)C(C)C [DX214] (Ac-AGVPFCDLLTKHCFEAGPGPEGGGK-OH; disulfide 6-13; C-terminus assumed)
